PubChem BioAssay AID504834 (National Center for Advancing Translational Sciences (NCATS), 2011)
The whole screen tested about 320,000 compounds, of which about 22,000 (6.9%) were called active. Inconclusive means that the source gave no clear call. Such entries were picked first, then a sample of the others. Calls come from the whole dose curve; as a rule, active = well fitted inhibition curve with a large enough effect; inconclusive = small, poorly fitted or top-dose-only effect, or another doubt; inactive = no such curve, though single readings can be large or run the other way. Where the call is inconclusive, the potency comes from a doubtful curve fit.

test: Primary qHTS for delayed death inhibitors of the malarial parasite plastid, 96 hour incubation; details: P. falciparum luciferase reporter growth; series mostly up to 28.7 µM; activity change, negative = inhibition: at the top concentration
Summary of the method: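 Two-generation exposure (96 h) targets delayed-death phenotype. Reporter parasites carrying integrated firefly luciferase, in red cells at 2% hematocrit and 0.05% parasitemia final, kept at 37 C, 5% CO2; luminescence loss indicates inhibition.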
% is set by controls: 0 for no effect and ±100 for the full control effect; potency is the fitted concentration of half-maximal effect.

Q: For `OCCNCCCOc1ccc(Cl)cc1Br`, which Potency is on record?
A: Its Potency is inconclusive: 18.5 µM [inhibitor, single point].

Q: For `Cc1cc(OCC(=O)NCCCN2CCOCC2)c2c(C)c(C)c(=O)oc2c1`, which Potency is on record?
A: The Potency was inconclusive: 18.5 µM [inhibitor, single point].

Q: With `CCCOc1ccc(C(=O)NNC(=S)NC(=O)CC)cc1` as the compound, how does the Potency read?
A: The Potency was active: 14.7 µM.

Q: With `CC(=O)c1ccc(Nc2ccc(-c3ccccc3C)nn2)cc1` as the compound, how does the “activity change, negative = inhibition” value read?
A: Its value is inactive: 9.54%.

Q: Which “activity change, negative = inhibition” value does the source give for `O=C1COc2ccc(S(=O)(=O)CCC(=O)NC3CCCCC3)cc2N1` here?
A: Its value is inactive: -2.29%.

Q: For `O=C(CSc1nnc(-c2ccccc2Cl)o1)N1CCCC1`, which “activity change, negative = inhibition” value is on record?
A: Its value is inactive: 1.2%.

Q: Which “activity change, negative = inhibition” value does the source give for `O=C(O)c1cn(-c2ccc(F)c(F)c2)c2c(F)c(F)c(F)c(F)c2c1=O` here?
A: The value was inactive: 15%.

Q: With `O=C(Cn1c2ccccc2c2nc3n(c(=O)c21)CCS3)Nc1ccccc1C(F)(F)F` as the compound, how does the Potency read?
A: Its Potency is inconclusive: 3.29 µM [inhibitor, full curve, poor fit].

Q: For `CSc1ccccc1NC(=O)c1cnccn1`, which “activity change, negative = inhibition” value is on record?
A: The value was inactive: 11.4%.

Q: For `COc1ccc(OCC(=O)N2CCc3c([nH]c4ccccc34)C2c2ccccn2)cc1` (stereo not drawn), which Potency is on record?
A: Its Potency is inconclusive: 1.85 µM [inhibitor, full curve].

Q: Which Potency does the source give for `COc1ccc(C2c3ccc4ccccc4c3Oc3ncn(CCN(C)C)c(=N)c32)cc1` (stereo not drawn) here?
A: Its Potency is inconclusive: 6.57 µM [inhibitor, partial curve, poor fit].

Q: For `CCc1ccccc1NC(=O)N1CCc2ccccc2C1`, which “activity change, negative = inhibition” value is on record?
A: Its value is inactive: 61.6%.

Q: Which Potency does the source give for `CCOC(=O)CSc1nnc(-c2ccc(S(=O)(=O)N3CCC(C)CC3)cc2)o1` here?
A: The Potency was inconclusive: 11.7 µM [inhibitor, partial curve, poor fit].

Q: For `COC(=O)CCc1c(C)c(C#N)c2nc3ccccc3n2c1N1CCCC1`, which Potency is on record?
A: Its Potency is inconclusive: 11.7 µM [inhibitor, partial curve].

Q: With `CCCCCNCC(=O)Nc1cccc(C(=O)Nc2cccc(C(F)(F)F)c2)c1` as the compound, how does the Potency read?
A: Its Potency is active: 3.29 µM.

Q: With `COc1ccc(N2C(=O)C3C4C=CC(C4)C3C2=O)c([N+](=O)[O-])c1` (stereo not drawn) as the compound, how does the “activity change, negative = inhibition” value read?
A: The value was inactive: 33%.

Q: With `CC(C)(C)NC(=O)C(c1ccc(F)cc1)N(Cc1cccs1)C(=O)c1ccc(CN2CCOCC2)o1` (stereo not drawn) as the compound, how does the Potency read?
A: Its Potency is inconclusive: 9.28 µM [inhibitor, single point].

Q: Which Potency does the source give for `CCc1nnc(NS(=O)(=O)c2ccc(NC(=S)NC(=O)/C=C/c3cccs3)cc2)s1` here?
A: Its Potency is inconclusive: 9.28 µM [inhibitor, single point].

Q: Which Potency does the source give for `CC(C(=O)N1CCc2ccccc2C1)N(c1ccccc1)S(C)(=O)=O` (stereo not drawn) here?
A: Its Potency is inconclusive: 11.7 µM [inhibitor, single point].

Q: Which “activity change, negative = inhibition” value does the source give for `O=C(CSc1nc(-c2ccco2)cc(C(F)(F)F)n1)NCC1CCCO1` (stereo not drawn) here?
A: The value was inactive: -22.9%.

Q: With `O=C(CN1C(=O)COc2ccc(Cl)cc21)N1CCc2ccccc21` as the compound, how does the Potency read?
A: Its Potency is inconclusive: 6.57 µM [inhibitor, partial curve].

Q: Which Potency does the source give for `COCCCN1C(=O)C(=O)/C(=C(/O)c2ccc(S(=O)(=O)N3CCCCC3)cc2)C1c1ccc(F)cc1` (stereo not drawn) here?
A: The Potency was inconclusive: 18.5 µM [inhibitor, partial curve, poor fit].

Q: Which Potency does the source give for `C=CCc1ccc(O)c(-c2cc(CC=C)ccc2O)c1` here?
A: The Potency was active: 3.7 µM.

Q: Which Potency does the source give for `CCN(CC)C(=O)c1cnn(-c2ccccc2)c1NC(=O)c1ccccc1F` here?
A: The Potency was active: 0.928 µM.

Q: For `COc1ccccc1NC(=S)NC(NC(=O)c1ccco1)C(Cl)(Cl)Cl` (stereo not drawn), which “activity change, negative = inhibition” value is on record?
A: Its value is inactive: 32.6%.

Q: With `O=C(NCC1CCCCC1)c1cc2ccccc2cc1O` as the compound, how does the Potency read?
A: The Potency was active: 1.65 µM.

Q: For `NC(=O)c1ccc(NC(=O)COc2ccc(-n3cnnn3)cc2)cc1`, which Potency is on record?
A: The Potency was inconclusive: 11.7 µM [inhibitor, single point].

Q: With `CC(C)(C)n1nc2c(c1NC(=O)c1cc3ccccc3o1)CSC2` as the compound, how does the Potency read?
A: Its Potency is inconclusive: 13.1 µM [inhibitor, single point].

Q: For `COC(=O)c1ccc(OCC(=O)NC2CCCCCC2)cc1`, which Potency is on record?
A: Its Potency is inconclusive: 18.5 µM [inhibitor, single point].

Q: Which Potency does the source give for `Cc1cccc(N2C(=O)CSC23CCCCC3)c1` here?
A: The Potency was active: 1.47 µM.

Q: With `Nc1nonc1-n1nnc(C(=O)N/N=C/c2cc(Br)cs2)c1-c1ccccc1` as the compound, how does the “activity change, negative = inhibition” value read?
A: Its value is inactive: -29.2%.

Q: With `C=CCNC(=S)NNC(=O)c1ccccc1OCC` as the compound, how does the “activity change, negative = inhibition” value read?
A: The value was inactive: 22.8%.

Q: Which Potency does the source give for `COCc1cc(=O)n2c(-c3ccc(C)cc3)n[nH]c2n1` here?
A: The Potency was inconclusive: 14.7 µM [inhibitor, partial curve, poor fit].

Q: With `COCC(C)n1c(SCC(=O)NC(=O)Cc2ccccc2)nc2ccccc2c1=O` (stereo not drawn) as the compound, how does the “activity change, negative = inhibition” value read?
A: Its value is inactive: -1.66%.

Q: With `Cc1ccc(NC(=O)CCl)c(C)c1` as the compound, how does the Potency read?
A: Its Potency is active: 10.4 µM.

Q: With `CCCC(C(=O)NC1CCCC1)N(Cc1ccc(OC)cc1)C(=O)c1snc(C(N)=O)c1N` (stereo not drawn) as the compound, how does the “activity change, negative = inhibition” value read?
A: Its value is inactive: 1.07%.

Q: With `O=[N+]([O-])c1ccccc1S(=O)(=O)N1CCN(Cc2cc3c(cc2O)OCO3)CC1` as the compound, how does the Potency read?
A: Its Potency is inconclusive: 0.0522 µM [inhibitor, partial curve, poor fit].

Q: With `O=C(NC1CC1)C1=C[C@@H](c2coc3ccccc3c2=O)C[C@@H](OCCCCO)O1` as the compound, how does the “activity change, negative = inhibition” value read?
A: The value was inactive: 32.5%.

Q: Which Potency does the source give for `Cc1cc(C)c(NC(=O)CN(C)S(=O)(=O)c2ccc3c(c2)n(C)c(=O)c(=O)n3C)c(C)c1` here?
A: The Potency was inconclusive: 3.29 µM [inhibitor, partial curve].

Q: For `COc1ccccc1-c1cc(C(=O)N2CCOCC2)no1`, which Potency is on record?
A: Its Potency is inconclusive: 14.7 µM [inhibitor, partial curve].

Q: Which “activity change, negative = inhibition” value does the source give for `COC(=O)c1ccc(C(=O)Nc2ccc(N)cc2N)cc1` here?
A: Its value is inactive: -9.2%.

Q: Which Potency does the source give for `CCOC(=O)[C@H]1[C@H]2COc3ccc(Cl)cc3[C@@H]2N2C(=O)c3ccc(F)cc3NC(=O)[C@@]12C` here?
A: The Potency was inconclusive: 11.7 µM [inhibitor, partial curve].

Q: Which Potency does the source give for `COc1c(Cl)cc(Cl)cc1C(=O)Nc1ccc(NC(=O)c2cccs2)cc1` here?
A: Its Potency is active: 13.1 µM.

Q: For `Cc1cc(OCC(=O)NNC(=O)c2cccs2)ccc1Br`, which Potency is on record?
A: Its Potency is inconclusive: 11.7 µM [inhibitor, single point].

Q: With `N=c1c2c(-c3ccccc3)c(-c3ccccc3)oc2ncn1Cc1ccco1` as the compound, how does the Potency read?
A: The Potency was inconclusive: 18.5 µM [inhibitor, single point].

Q: For `COC(=O)c1[nH]c2ccccc2c1NC(=O)c1ccccc1[N+](=O)[O-]`, which “activity change, negative = inhibition” value is on record?
A: The value was inactive: 32.6%.

Q: With `CN(C(=O)c1ccc(Cl)c([N+](=O)[O-])c1)C1(C)CCS(=O)(=O)C1` (stereo not drawn) as the compound, how does the “activity change, negative = inhibition” value read?
A: Its value is inactive: 5.98%.

Q: Which Potency does the source give for `CN(CCCN1CCOCC1)Cc1cn(C)nc1-c1ccccc1F` here?
A: Its Potency is active: 5.86 µM.
